Measured values taken from publication PMC7337926.
These are yes or no findings as the source states them, for the method shown. For part of these data: In cells and extracts the contact can be indirect. Sequences can lack the tags named with a protein. Blank lines part the entries; values can stand above or below the binder they belong to.

Tests used:
[1] = molecular target: T1, SE fused to the Gal4 DNA binding domain (Arabidopsis thaliana) (UniProt Q9ZVD0); assay: two-hybrid; Matchmaker Gal4 system, S. cerevisiae Y2HGold, 28°C; growth on medium lacking L, T, H, A and on medium with aureobasidin and X-αGal
T1 sequence: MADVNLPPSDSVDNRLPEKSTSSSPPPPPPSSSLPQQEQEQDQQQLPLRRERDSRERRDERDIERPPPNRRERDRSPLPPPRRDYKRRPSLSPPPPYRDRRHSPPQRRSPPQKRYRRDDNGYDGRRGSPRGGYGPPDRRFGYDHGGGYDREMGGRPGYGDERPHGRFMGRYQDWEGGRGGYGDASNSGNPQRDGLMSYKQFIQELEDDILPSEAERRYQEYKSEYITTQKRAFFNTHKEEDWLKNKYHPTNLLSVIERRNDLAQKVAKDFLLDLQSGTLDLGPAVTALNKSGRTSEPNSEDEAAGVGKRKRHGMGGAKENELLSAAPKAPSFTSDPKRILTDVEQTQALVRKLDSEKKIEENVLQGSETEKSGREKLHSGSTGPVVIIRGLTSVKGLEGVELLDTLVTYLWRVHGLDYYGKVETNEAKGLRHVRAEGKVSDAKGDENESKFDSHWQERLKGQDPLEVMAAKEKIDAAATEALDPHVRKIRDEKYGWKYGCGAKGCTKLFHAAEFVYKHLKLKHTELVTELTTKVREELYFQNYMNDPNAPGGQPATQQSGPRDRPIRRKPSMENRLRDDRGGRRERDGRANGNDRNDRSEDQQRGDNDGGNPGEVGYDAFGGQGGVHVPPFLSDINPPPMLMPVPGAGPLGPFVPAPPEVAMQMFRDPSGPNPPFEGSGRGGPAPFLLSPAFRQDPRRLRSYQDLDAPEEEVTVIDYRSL

[2] = molecular target: T2, MBP-SE (Arabidopsis thaliana) (UniProt Q9ZVD0); assay: pull-down; MBP-SE bound to amylose beads, [35S]-labelled in vitro translated proteins added, 2 h at 4°C, 20 mM Tris HCl pH 7.5, 200 mM NaCl, 1 mM EDTA; samples treated with RNase; eluted with 20 mM maltose; only the target purified
T2 sequence: T1 sequence

[3] = molecular target: T3, SE-GFP (Arabidopsis thaliana) (UniProt Q9ZVD0); assay: FRET or BRET; FRET-FLIM in Arabidopsis protoplasts; GFP fusion as donor, RFP fusion as acceptor; fluorescence lifetime of the donor against the PRP39A-RFP control
T3 sequence: T1 sequence

- binding [1]: no binding
B1: HEN2 fused to the Gal4 activation domain (protein, UniProt Q9ZVW2 1-995)
chain: MSAQMEEPETLGKRKESESSKLRSDETPTPEPRTKRRSLKRACVHEVAVPNDYTPTKEETIHGTLDNPVFNGDMAKTYPFKLDPFQSVSVACLERKESILVSAHTSAGKTAVAEYAIAMAFRDKQRVIYTSPLKALSNQKYRELQHEFKDVGLMTGDVTLSPNASCLVMTTEILRAMLYRGSEVLKEVAWVIFDEIHYMKDRERGVVWEESIIFLPPAIKMVFLSATMSNATEFAEWICYLHKQPCHVVYTDFRPTPLQHYAFPMGGGGLYLVVDDNEQFREDSFVKMQDTFPKPKSNDGKKSANGKSGGRGAKGGGGPGDSDVYKIVKMIMERKFEPVIIFSFSRRECEQHALSMSKLDFNTDEEKEVVEQVFNNAMQCLNEEDRSLPAIELMLPLLQRGIAVHHSGLLPVIKELVELLFQEGLVKALFATETFAMGLNMPAKTVVFTAVKKWDGDSHRYIGSGEYIQMSGRAGRRGKDERGICIIMIDEQMEMNTLRDMMLGKPAPLLSTFRLSYYTILNLLSRAEGQFTAEHVIRHSFHQFQHEKALPDIGNKVSKLEEEAAILNASGEAEVAEYHNLQFDIAKHEKKLMSEIIRPERVLCFLDTGRLVKIREGGTDWGWGVVVNVVKNSSVGTGSASSHGGGYIVDTLLHCSTGFSENGAKPKPCPPRAGEKGEMHVVPVQLPLISALSRLRISVPSDLRPVEARQSILLALQELSSRFPLGFPKLHPVKDMNIQDTEIVDLVSQIEEVEQKLLAHPMHKSEDDQQIKSFQRKAEVNYEIQQLKSKMRDSQLQKFRDELKNRSRVLKKLGHIDADGVVQVKGRAACLIDTGDELLVTELMFNGTFNDLDHHQVAALASCFIPVDKSNEQVNLRNELTKPLQQLQDSARKIAEIQHECKLEIDVEEYVESTIRPFLMDVIYSWSKGASFAEIIQMTDIFEGSIIRSARRLDEFLNQLRAAAEAVGESSLESKFAAASESLRRGIMFANSLYL

- binding [2]: no binding
B2: [35S]-methionine labeled HEN2 (in vitro translated) (protein, UniProt Q9ZVW2 1-995)
chain: B1 chain
modifications: [35S]-methionine labeled

- binding [3]: no binding
B3: HEN2-RFP (protein, UniProt Q9ZVW2 1-995)
chain: B1 chain
